Assay results: PMC11550807
Results are given in words; binding and its absence hold for the method and conditions named. In cells and extracts the contact can be indirect. These calls come from enrichment with a bait or labelling near it, and not all partners need be listed.

Protein sequences, listed by entry. Tags and fused reporters are not part of them. Lines headed by an entry give the natural chain unless they say otherwise; changes in a name come on top.
UniProt Q14315: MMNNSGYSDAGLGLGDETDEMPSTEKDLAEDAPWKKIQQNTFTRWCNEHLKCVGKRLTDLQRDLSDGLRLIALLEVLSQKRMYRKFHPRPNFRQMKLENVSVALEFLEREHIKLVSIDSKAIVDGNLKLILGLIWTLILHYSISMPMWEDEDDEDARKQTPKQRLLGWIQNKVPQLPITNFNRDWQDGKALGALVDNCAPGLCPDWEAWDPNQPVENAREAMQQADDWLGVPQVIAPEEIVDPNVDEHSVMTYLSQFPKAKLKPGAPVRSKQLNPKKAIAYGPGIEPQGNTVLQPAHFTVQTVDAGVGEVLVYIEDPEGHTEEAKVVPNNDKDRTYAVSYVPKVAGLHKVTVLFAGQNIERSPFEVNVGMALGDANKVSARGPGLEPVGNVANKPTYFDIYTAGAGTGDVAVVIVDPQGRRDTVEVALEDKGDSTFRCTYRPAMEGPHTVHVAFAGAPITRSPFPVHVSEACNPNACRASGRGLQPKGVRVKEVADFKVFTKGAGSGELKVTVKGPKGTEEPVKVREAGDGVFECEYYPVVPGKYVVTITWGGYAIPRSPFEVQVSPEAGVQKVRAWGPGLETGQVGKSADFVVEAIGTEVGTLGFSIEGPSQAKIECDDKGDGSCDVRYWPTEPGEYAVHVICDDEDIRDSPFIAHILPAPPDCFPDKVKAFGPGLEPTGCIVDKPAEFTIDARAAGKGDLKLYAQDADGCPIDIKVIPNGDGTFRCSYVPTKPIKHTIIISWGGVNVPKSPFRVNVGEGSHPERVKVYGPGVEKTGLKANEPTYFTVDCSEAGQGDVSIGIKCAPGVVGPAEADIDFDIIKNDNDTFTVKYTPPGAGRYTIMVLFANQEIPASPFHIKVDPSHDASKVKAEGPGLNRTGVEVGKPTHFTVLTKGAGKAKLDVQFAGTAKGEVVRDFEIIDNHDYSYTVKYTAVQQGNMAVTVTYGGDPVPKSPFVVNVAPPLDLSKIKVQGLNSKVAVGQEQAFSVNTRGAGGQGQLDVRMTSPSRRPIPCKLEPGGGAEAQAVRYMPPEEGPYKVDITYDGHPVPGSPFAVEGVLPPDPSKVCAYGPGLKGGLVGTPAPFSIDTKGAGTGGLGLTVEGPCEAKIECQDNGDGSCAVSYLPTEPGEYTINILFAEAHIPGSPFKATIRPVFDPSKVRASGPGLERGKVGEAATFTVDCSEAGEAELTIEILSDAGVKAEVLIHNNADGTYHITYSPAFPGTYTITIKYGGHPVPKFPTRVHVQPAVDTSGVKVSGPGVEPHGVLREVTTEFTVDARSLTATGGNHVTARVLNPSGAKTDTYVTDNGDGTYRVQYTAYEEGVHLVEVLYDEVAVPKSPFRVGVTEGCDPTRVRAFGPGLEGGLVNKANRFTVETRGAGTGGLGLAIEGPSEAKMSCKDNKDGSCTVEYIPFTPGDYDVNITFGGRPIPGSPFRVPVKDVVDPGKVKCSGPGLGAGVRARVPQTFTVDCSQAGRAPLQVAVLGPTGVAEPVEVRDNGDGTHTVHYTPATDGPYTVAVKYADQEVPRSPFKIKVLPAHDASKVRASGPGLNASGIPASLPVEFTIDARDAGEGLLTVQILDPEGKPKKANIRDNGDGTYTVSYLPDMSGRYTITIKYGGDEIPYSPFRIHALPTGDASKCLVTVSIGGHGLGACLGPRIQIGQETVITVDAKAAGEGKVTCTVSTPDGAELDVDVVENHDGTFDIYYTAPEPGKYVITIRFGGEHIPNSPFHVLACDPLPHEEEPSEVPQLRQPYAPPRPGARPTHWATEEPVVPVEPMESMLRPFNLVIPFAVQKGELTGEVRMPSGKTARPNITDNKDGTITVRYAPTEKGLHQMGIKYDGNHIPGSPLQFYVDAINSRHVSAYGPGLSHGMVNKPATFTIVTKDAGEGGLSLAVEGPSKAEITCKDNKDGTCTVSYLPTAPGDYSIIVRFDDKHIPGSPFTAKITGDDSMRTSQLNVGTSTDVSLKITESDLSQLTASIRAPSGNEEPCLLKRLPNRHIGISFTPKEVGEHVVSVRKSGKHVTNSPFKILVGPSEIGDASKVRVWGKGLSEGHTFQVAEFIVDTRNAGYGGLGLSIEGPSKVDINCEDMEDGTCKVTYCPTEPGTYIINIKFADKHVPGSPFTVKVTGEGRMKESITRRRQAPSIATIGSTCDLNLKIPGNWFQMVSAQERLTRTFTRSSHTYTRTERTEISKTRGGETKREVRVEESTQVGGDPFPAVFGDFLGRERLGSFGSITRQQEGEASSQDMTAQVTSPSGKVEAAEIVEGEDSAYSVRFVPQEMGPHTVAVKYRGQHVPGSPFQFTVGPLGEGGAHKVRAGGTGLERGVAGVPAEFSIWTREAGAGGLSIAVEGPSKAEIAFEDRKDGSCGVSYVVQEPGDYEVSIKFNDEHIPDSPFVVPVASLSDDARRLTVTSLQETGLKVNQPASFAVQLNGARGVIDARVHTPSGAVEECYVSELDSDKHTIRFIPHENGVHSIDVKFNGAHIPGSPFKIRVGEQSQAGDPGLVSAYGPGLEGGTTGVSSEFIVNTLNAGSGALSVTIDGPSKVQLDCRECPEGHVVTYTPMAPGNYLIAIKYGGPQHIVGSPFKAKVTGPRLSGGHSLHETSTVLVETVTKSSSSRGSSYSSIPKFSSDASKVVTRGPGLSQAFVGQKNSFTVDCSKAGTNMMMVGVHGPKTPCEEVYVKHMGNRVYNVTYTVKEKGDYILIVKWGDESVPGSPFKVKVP
UniProt P62141: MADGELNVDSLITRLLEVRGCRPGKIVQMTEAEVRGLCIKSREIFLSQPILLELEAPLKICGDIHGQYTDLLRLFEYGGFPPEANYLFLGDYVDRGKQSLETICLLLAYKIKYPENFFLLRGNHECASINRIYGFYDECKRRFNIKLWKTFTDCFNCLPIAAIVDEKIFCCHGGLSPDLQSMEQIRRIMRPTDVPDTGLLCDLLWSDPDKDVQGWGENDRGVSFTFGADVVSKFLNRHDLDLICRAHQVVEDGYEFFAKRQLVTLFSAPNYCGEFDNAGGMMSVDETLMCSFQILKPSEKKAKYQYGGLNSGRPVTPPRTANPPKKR
UniProt P63087: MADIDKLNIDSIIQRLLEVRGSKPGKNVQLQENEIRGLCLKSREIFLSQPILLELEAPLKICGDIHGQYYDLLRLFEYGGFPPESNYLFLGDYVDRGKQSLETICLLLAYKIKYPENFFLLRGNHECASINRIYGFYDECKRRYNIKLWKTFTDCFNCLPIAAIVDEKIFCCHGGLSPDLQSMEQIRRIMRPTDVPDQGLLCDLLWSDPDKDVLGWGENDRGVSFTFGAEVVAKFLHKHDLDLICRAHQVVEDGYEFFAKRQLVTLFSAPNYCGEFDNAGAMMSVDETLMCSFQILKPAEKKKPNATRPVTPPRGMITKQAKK
UniProt P62137: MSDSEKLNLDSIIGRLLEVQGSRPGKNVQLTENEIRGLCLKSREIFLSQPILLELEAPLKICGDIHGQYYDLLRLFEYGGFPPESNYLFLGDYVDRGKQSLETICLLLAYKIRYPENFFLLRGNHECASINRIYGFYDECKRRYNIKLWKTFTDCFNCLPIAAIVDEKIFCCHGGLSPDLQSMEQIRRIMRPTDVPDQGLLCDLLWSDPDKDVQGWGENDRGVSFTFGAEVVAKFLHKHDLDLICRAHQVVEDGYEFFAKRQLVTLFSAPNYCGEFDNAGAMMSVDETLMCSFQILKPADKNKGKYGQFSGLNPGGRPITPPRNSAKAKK
UniProt Q9JLV1: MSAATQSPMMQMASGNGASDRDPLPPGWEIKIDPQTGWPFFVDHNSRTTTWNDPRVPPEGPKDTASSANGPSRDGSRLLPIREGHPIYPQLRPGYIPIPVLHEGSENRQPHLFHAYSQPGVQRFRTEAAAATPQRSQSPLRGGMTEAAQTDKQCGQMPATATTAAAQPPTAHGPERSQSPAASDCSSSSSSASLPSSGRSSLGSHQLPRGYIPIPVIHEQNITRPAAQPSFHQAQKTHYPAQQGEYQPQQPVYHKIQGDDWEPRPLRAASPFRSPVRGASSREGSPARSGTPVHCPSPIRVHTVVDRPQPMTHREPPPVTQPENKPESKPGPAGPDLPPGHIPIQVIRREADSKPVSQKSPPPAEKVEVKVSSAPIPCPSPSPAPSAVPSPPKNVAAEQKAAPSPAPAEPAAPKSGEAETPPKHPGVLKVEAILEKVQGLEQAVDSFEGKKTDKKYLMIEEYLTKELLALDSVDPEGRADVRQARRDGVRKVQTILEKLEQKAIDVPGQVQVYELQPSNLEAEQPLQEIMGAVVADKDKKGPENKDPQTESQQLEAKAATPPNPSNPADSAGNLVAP
UniProt Q99NH2: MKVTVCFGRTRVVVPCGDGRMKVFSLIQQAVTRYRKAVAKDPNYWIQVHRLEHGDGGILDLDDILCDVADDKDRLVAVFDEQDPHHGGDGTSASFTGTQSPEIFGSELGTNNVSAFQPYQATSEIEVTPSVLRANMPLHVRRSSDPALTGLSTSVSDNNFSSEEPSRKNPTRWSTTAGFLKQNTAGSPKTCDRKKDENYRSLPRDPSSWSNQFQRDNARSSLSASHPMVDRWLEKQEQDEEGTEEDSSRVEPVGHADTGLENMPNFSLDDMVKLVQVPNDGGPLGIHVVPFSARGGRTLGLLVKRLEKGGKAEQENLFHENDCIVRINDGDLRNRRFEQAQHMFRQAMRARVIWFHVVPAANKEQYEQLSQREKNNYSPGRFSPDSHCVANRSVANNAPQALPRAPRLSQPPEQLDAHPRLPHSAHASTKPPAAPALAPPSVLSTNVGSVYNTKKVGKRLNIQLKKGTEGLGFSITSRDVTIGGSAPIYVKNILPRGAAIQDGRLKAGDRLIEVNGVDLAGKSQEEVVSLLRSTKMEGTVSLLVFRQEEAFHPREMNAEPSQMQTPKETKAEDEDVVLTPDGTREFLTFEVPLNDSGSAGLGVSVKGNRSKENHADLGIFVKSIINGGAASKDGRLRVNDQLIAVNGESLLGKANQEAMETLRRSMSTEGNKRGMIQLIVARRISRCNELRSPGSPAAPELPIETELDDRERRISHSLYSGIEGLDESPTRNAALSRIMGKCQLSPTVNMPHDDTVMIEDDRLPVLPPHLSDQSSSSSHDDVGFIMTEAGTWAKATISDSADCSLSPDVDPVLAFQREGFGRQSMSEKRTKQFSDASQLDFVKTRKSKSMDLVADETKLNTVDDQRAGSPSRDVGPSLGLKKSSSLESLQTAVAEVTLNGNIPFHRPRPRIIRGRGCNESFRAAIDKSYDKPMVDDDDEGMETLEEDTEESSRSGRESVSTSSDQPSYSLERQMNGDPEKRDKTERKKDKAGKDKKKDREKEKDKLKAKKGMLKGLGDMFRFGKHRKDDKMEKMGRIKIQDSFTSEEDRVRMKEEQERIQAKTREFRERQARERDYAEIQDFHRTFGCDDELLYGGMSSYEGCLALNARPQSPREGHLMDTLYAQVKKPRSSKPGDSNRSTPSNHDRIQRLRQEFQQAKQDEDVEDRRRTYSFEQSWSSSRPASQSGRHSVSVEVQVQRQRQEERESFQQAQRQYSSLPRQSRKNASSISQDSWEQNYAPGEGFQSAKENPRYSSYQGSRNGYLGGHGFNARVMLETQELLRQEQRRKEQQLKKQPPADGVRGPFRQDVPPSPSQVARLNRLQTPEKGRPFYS

Target: His6-tagged hFLNc d18-21 (FLNc d18-21-His-EEF) (human) (UniProt Q14315)
Assay: affinity purification with mass spectrometry; His6-tagged hFLNc d18-21 or hFLNc d1-3 (control) on Ni2+-NTA agarose beads, incubated with C2 myotube lysate in co-IP buffer (25 mM Tris, 150 mM NaCl, 0.5% sodium deoxycholate, 1% NP-40, 10% glycerol, 2 mM EDTA, pH 8.0) for 1 h at 10 °C; eluates by …; d18-21 against d1-3, n = 5; only the target purified

“PP1 catalytic subunit PPP1CB, endogenous in C2 myotubes (from UniProt P62141 1-327) (enzyme)” was tested, and the binding was “binds”.

In the case of “inactive tyrosine-protein kinase (PEAK1), endogenous in C2 myotubes (from UniProt Q69Z38 1-1735)”, the binding is reported as “binds”.

With “PP1 catalytic subunit PPP1CC, endogenous in C2 myotubes (from UniProt P63087 1-323) (enzyme)” the binding was “binds”.

For “PP1 catalytic subunit PPP1CA, endogenous in C2 myotubes (from UniProt P62137 1-330) (enzyme)”, the binding was “binds”.

With “BAG3, endogenous in C2 myotubes (from UniProt Q9JLV1 1-577)” the binding was “binds”.

“partitioning defective 3 homolog (PARD3), endogenous in C2 myotubes (from UniProt Q99NH2 1-1333)” was tested, and the binding was “binds”.

B1: filamin-A-interacting protein 1 (FILIP1), endogenous in C2 myotubes (protein, UniProt Q9CS72 1-1214)
chain: MRSRNQGGESSSNGHVSCPKPSIISSDGGKGPSEDAKKNKANRKGEDDVMASGTVKRHLKPSGESEKKTKKPLELSKEDLIQLLSIMEGELQAREDVIHMLKTEKTKPEVLEAHYGSAEPEKVLRVLHRDAILAQEKSIGEDVYEKPISELDRLEEKQKETYRRMLEQLLLAEKCHRRTVYELENEKHKHTDYMNKSDDFTNLLEQERERLKKLLEQEKAYQARKEKENAKRLNKLRDELVKLKSFALMLVDERQMHIEQLGLQSQKVQDLTQKLREEEEKLKAITYKSKEDRQKLLKLEVDFEHKASRFSQEHEEMNAKLANQESHNRQLRLKLVGLSQRIEELEETNKSLQKAEEELQELRDKIAKGECGNSSLMAEVESLRKRVLEMEGKDEEITKTEAQCRELKKKLQEEEHHSKELRLEVEKLQKRMSELEKLEEAFSRSKSECTQLHLNLEKEKNLTKDLLNELEVVKSRVKELECSESRLEKVELSLKDDLTKLKSFTVMLVDERKNMMEKIKQEERKVDGLNKNFKVEQGKVMDVTEKLIEESKKLLKLKSEMEEKVYSLTKERDELMGKLRSEEERSCELSCSVDLLKKRLDGIEEVEREINRGRLCKGSEFTCPEDNKIRELTLEIERLKKRLQQLEVVEGDLMKTEDEYDQLEQKFRTEQDKANFLSQQLEEIKHQMAKNKAIEKGEAVSQEAELRHRFRMEEAKSRDLQAEVQALKEKIHELMNKEDQLSQLQVDYSVLQQRFMEEETKNKNMGREVLNLTKELELSKRYSRALRPSGNGRRMVDVPVASTGVQTEAVCGDAAEEETPAVFIRKSFQEENHIMSNLRQVGLKKPMERSSVLDRYPPAANELTMRKSWIPWMRKRENGPSAPQEKGPRPNQGTGHPGELVLAPKQGQPLHIRVTPDHENSTATLEITSPTSEEFFSSTTVIPTLGNQKPRITIIPSPNVMSQKPKSADPTLGPERAMSPVTITTISREKSPEGGRGAFADRPASPIQIMTVSTSAAPPEIAVSPDSQEVPMGRTILKVTPEKQTVPTPMRKYNANANIITTEDNKIHIHLGSQFKRSPGPAAAEGVSPVITVRPVNVTAEKEVSTGTVLRSPRNHLSSRPGANKVTSTITITPVTTSSTRGTQSVSGQDGSSQRPTPTRIPMSKGMKAGKPVVAAPGAGNLTKFQPRAETQSMKIELKKSAASSTASLGGGKG
With B1 the binding was “binds”.

B2: HSPB8, endogenous in C2 myotubes (protein, UniProt Q9JK92 1-196)
chain: MADGQLPFPCSYPSRLRRDPFRDSPLSSRLLDDGFGMDPFPDDLTAPWPEWALPRLSSAWPGTLRSGMVPRGPPATARFGVPAEGRSPPPFPGEPWKVCVNVHSFKPEELMVKTKDGYVEVSGKHEEKQQEGGIVSKNFTKKIQLPAEVDPATVFASLSPEGLLIIEAPQVPPYSPFGESSFNNELPQDNQEVTCS
In the case of B2, the binding is reported as “binds”.

B3: ATP-dependent 6-phosphofructokinase, muscle type (PFKM), endogenous in C2 myotubes (protein, UniProt P47857 1-780)
chain: MTHEEHHAAKTLGIGKAIAVLTSGGDAQGMNAAVRAVVRVGIFTGARVFFVHEGYQGLVDGGEHIREATWESVSMMLQLGGTVIGSARCKDFREREGRLRAAHNLVKRGITNLCVIGGDGSLTGADTFRSEWSDLLNDLQKDGKITAEEATKSSYLNIVGLVGSIDNDFCGTDMTIGTDSALHRIVEIVDAITTTAQSHQRTFVLEVMGRHCGYLALVTSLSCGADWVFIPECPPDDDWEEHLCRRLSETRTRGSRLNIIIVAEGAIDKNGKPITSEDIKNLVVKRLGYDTRVTVLGHVQRGGTPSAFDRILGSRMGVEAVMALLEGTPDTPACVVSLSGNQAVRLPLMECVQVTKDVTKAMDEKRFDEAIKLRGRSFMNNWEVYKLLAHVRPPVSKGGLHTVAVMNVGAPAAGMNAAVRSTVRIGLIQGNRVLVVHDGFEGLAKGQIEEAGWSYVGGWTGQGGSKLGTKRTLPKKNLEQISANITKFNIQGLVIIGGFEAYTGGLELMEGRKQFDELCIPFVVIPATVSNNVPGSDFSIGADTALNTICTTCDRIKQSAAGTKRRVFIIETMGGYCGYLATMAGLAAGADAAYIFEEPFTIRDLQVNVEHLVQKMKTTVKRGLVLRNEKCNENYTTDFIFNLYSEEGKGIFDSRKNVLGHMQQGGSPTPFDRNFATKMGAKAMNWMSGKIKESYRNGRIFANTPDSGCVLGMRKRALVFQPVTELKDQTDFEHRIPKEQWWLKLRPILKILAKYEIDLDTSDHAHLEHISRKRSGEAAV
With B3 the binding was “binds”.
